According to PMC6126873:
No constants are given. Whether binding was seen depends on the method and setting. Binding seen in cells or lysates may run through a third protein. Here binding means that the protein was enriched with, or labelled near, the bait; the list need not be complete. Where a sequence is shown, tags or fusion partners need not be part of it.

Target: T1, TRIM69-Flag (human) (UniProt Q86WT6)
T1 sequence: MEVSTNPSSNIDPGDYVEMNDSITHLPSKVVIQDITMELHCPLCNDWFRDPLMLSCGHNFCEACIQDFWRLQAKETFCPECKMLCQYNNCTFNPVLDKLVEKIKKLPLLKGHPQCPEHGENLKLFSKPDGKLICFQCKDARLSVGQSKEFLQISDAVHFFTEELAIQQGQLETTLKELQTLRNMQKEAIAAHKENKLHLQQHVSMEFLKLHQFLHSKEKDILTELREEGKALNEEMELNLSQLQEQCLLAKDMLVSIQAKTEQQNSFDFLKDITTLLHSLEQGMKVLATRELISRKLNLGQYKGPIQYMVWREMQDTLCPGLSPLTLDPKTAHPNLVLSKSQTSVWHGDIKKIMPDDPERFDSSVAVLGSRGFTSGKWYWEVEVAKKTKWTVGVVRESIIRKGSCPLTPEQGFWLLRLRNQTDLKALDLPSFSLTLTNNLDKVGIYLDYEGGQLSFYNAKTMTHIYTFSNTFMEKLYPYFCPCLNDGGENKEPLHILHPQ
Experiment: affinity purification with mass spectrometry; TRIM69-Flag transfected into 293T cells, then infected with DENV-2; MG132 (20 uM) 4 h; RIPA buffer (25 mM Tris-HCl pH 7.4, 150 mM NaCl, 1% NP-40, 1 mM EDTA, 5% glycerol); Flag Ab agarose beads overnight at 4 C; gel slices, nano-LC-MS/MS; Flag tag alone as control

| Substance | binding |
| --- | --- |
| DENV NS3 from DENV-2 infected 293T cells (from UniProt P14340 1476-2093) | binds |
| DENV NS4B from DENV-2 infected 293T cells (from UniProt P14340 2244-2491) | binds |
